# From PubChem BioAssay AID1794845 (National Center for Advancing Translational Sciences (NCATS), 2023)
# Protein sequences, listed by entry. Tags and fused reporters are not part of them. Lines headed by an entry give the natural chain unless they say otherwise; changes in a name come on top.
# UniProt C7C422: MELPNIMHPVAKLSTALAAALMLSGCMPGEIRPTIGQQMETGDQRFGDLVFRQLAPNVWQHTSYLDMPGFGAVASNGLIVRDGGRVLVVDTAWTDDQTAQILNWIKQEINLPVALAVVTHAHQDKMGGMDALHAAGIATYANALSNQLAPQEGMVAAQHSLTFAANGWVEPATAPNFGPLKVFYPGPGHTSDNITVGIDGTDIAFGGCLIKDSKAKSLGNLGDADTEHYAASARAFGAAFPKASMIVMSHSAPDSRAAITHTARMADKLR
# In all, about 6,900 compounds went through this assay and fewer than 10 were called active. Calls follow the shape of the dose curve; as a rule, active = well fitted curve in the direction sought with a large enough effect; inconclusive = small, poorly fitted or top-dose-only effect, or another doubt; inactive = no such curve, though single readings can be large or run the other way. This is one part of the list.
# Target: Metallo-beta-lactamase type 2 (Klebsiella pneumoniae) (UniProt C7C422)
# Test: qHTS to identify inhibitors of the New Delhi Metallo-beta-lactamase (NDM): primary screen against the NCATS Gemini Collection; also: % of control where 0% means no effect
# Conditions: NDM-1 enzyme, meropenem hydrolysis, absorbance 300 nm; at 38.4 µM (top of the series) unless noted
# Method in brief: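 Meropenem hydrolysis (50 uM final) by 2 nM NDM-1 read as 300 nm absorbance after 30 min, following >30 min compound–enzyme preincubation in HEPES pH 7.0 with 1 uM ZnSO4 and 0.01% Tween20.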
row,Structure (SMILES),activity % (negative = inhibition)
1,Cc1nn(C)c(C)c1NC(=O)CC[C@H]1NC(=O)c2ccccc2NC1=O,inactive: 36.7%
2,CSCC(=O)N[C@H]1CCN2C(=O)c3ccc(Cl)cc3NC(=O)[C@@H]2C1,inactive: 1.45% [at 57.5 µM]
3,CCOCCOC1CCN(C(=O)c2cccc3[nH]ccc23)CC1,inactive: 5.83%
4,COCCN1CCC2(CCC1=O)CN(C(=O)NC(C)C)CCN2C (stereo not given),inactive: -3%
5,COc1cccc(CN2CCNC(=O)C2CC(=O)N2CCNC(=O)C2)c1OC (stereo not given),inactive: -0.189%
6,O=C(c1cn2ccccc2n1)N1C[C@@H](CO)[C@H](c2ccccn2)C1,inactive: 5.31%
7,O=S(=O)(NC[C@H]1O[C@@H](CO)[C@@H](O)[C@H]1N1CCN(c2ccc(F)cc2)CC1)c1ccc(F)cc1,inactive: 1.36%
8,CCCN1C[C@@H](CO)[C@H](c2nc(CCOC)no2)C1,inactive: -0.261%
9,COc1cccc(-c2cc(CC3(O)CCN(c4nnc(C)o4)CC3)on2)c1,inactive: -5.45%
10,COc1ccc(Nc2ccc3c(n2)CN(Cc2ccccc2C)C(=O)CO3)cc1,inactive: 11.6% [at 57.5 µM]
11,CC(C)=CCN1Cc2ccccc2NC(=O)C12CCNC2 (stereo not given),inactive: 4.99% [at 57.5 µM]
12,O=C(NCCc1ccccc1)C1CCC(=O)N(CCCN2CCOCC2)C1 (stereo not given),inactive: 1.78%
13,Cc1cnn(CCC(=O)NC2CCN(c3ccc(=O)n(C)n3)CC2)c1,inactive: -0.418%
14,CCc1cn(C[C@H](NC(=O)C2CCCC2)C(=O)O)c(=O)[nH]c1=O,inactive: -9.31% [at 57.5 µM]
15,COc1cccc(CN2CCC(Oc3ccc(-c4noc(C5CC5)n4)cc3)C2)c1 (stereo not given),inactive: 0.662%
16,CN1CCN(C(=O)N2CCC3(CCCN(C4CCOCC4)C3=O)C2)CC1 (stereo not given),inactive: -0.0909%
17,Cn1cnc([S+](=O)([O-])N2CCN(C(=O)N3CC4CC(C3)[C@H]3CCCC(=O)N3C4)CC2)c1 (stereo not given in full),inactive: 1.83%
18,CCO[C@H]1CN(Cc2cnc(SCc3ccccc3)nc2)C[C@@H]1O,inactive: 4.65%
19,C[C@@H]1CN(Cc2cc(C(N)=O)oc2C(C)(C)C)CC[C@@]1(O)C1CCC1,inactive: 1.66%
20,COc1ccc(CN2CCOC[C@H]2c2ncc(-c3cccnc3)[nH]2)cc1,inactive: 3.6% [at 57.5 µM]
21,Cc1ccc([C@@H]2CN(C(=O)CN3CCOC3=O)C[C@H]2NC(=O)C2CC2)cc1,inactive: -1.88%
22,O=C(c1ccoc1)N1CCC2(CC1)CC(CO)N(C(=O)c1ccccc1)C2 (stereo not given),inactive: 6.66%

row,Structure (SMILES),activity % (negative = inhibition)
1,C=CCNC(=O)c1cnn2c1CN(C(=O)OCc1ccccc1)CC2,inactive: 1.77%
2,Cc1ccc(C(=O)N[C@H]2CO[C@H]3[C@@H]2OC[C@@H]3n2cc(-c3ccccc3)nn2)cc1,inactive: 1.92% [at 57.5 µM]
3,COC(=O)NC1CCCN(Cc2ccc(-c3cncnc3)cc2)C1 (stereo not given),inactive: 4.69% [at 57.5 µM]
4,Cn1nc(C2CCCC2)cc1NC(=O)C1CC1,inactive: -6.67% [at 57.5 µM]
5,CCc1nc(NC2CCCC2)ncc1C(=O)O,inactive: 6.04%
6,COCc1nc(-c2cccc(NC(=O)CC[C@H]3NC(=O)c4ccccc4NC3=O)c2)n[nH]1,inactive: -1.17%
7,Cc1cnc(C(=O)N[C@@H]2CCC[C@@H]2C(=O)NCc2cc(F)ccc2F)cn1,inactive: 2.67%
8,OC1(CN2CCN(CCc3ccccn3)CC2)CCCNC1 (stereo not given),inactive: 54.2%
9,CNC(=O)c1cc[nH]c1C1CCCN(Cc2ccc3c(c2)CCO3)C1 (stereo not given),inactive: 15.5%
10,Cn1nccc1C(=O)N1C[C@@H](F)C[C@H]1C(=O)N1CCCCC1,inactive: 1.31%
11,Cn1cccc1C(=O)N[C@H]1C[C@@H]2C(=O)N[C@H]3CCN(C(=O)Cc4cccs4)[C@@H]3C(=O)N2C1,inactive: 1.62%
12,CN(Cc1cn(C)c2ccccc12)C1CCc2nn(CC3CC3)c(=O)n2CC1 (stereo not given),inactive: -1.91%
13,COc1cccc(-c2ccc(CN3CCCC3C(=O)N3CCN(c4ncccn4)CC3)cc2)c1 (stereo not given),inactive: 2.74%
14,CNCCN1C(=O)CC[C@H]2CN(C(=O)COc3cccnc3)CC[C@H]21,inactive: -1.29%
15,NC(=O)CN1CC2(CCC1=O)CCN(C[C@@H](O)CO)CC2,inactive: -1.59%
16,c1ccc(Nc2cc3c(cn2)NCCN(Cc2ccccn2)C3)cc1,inactive: 15.7% [at 57.5 µM]
17,CCN1C(=O)Cc2cc(C(=O)NCc3c(C)cc(C)cc3C)ccc21,inactive: 4.54%
18,Cc1ccc(CN2CC[C@H](c3nc4cc(C)ccc4o3)C2)cc1,inactive: 4.4% [at 57.5 µM]
19,CCN(CC)C(=O)c1cc2c(s1)CCC(C(=O)N1CCN(c3ccccn3)CC1)C2 (stereo not given),inactive: 16.9%
20,COc1ccccc1OCCN1C(=O)C2(CCOCC2)CC1c1nnnn1C(C)(C)C (stereo not given),inactive: 4.52%
21,Cc1cnc(CCN)n1Cc1ccccc1,inactive: -1.12%
22,CC(C)n1nc(OC(C)(C)C(=O)Nc2ccccn2)c2cc(CN3CCOCC3)ccc21,inactive: 2.09% [at 57.5 µM]

row,Structure (SMILES),activity % (negative = inhibition)
1,CC(=O)N[C@@H]1CN(C(=O)CCc2c[nH]c3ccccc23)C[C@H]1CO,inactive: 0.334%
2,Cn1ncc2c(NCCc3nnc(N)s3)nc(-c3ccncc3)nc21,inactive: 0.0205%
3,CN1CCNC(=O)C1CC(=O)O (stereo not given),inactive: 12.9%
4,COc1ccc(CN2CCN(C3CCN(c4ccccc4)CC3)CC2CCO)cc1C (stereo not given),inactive: -1.42%
5,Cc1onc(-c2cnn(C)c2NCc2ccc(C#N)cc2)c1C(=O)N1CCCC1,inactive: 0.853% [at 57.5 µM]
6,O=S(=O)(c1ccccc1F)N1CCC(CCc2nc(C3CCOCC3)no2)CC1,inactive: 28.6%
7,CCCS(=O)(=O)N1CCCC(c2[nH]ccc2C(N)=O)C1 (stereo not given),inactive: 0.265%
8,COc1ccc(Cl)cc1C(=O)N1CCC2(CC1)CN(C)CCN2C,inactive: -1.47%
9,O=C(c1nc(-c2cccnc2)c2ccccn12)N1CCOCC1,inactive: 13.2% [at 57.5 µM]
10,COc1ccc(CN2CC(c3nc(Cc4cccnc4)no3)C2)c(OC)c1,inactive: 17.3%
11,CCc1nc(-c2c3n(c(=O)n(CC(=O)Nc4cc(C)on4)c2=O)CCCC3)no1,inactive: 3.96%
12,O=C(NC[C@H]1OC[C@@H](NC2CCC2)[C@@H]1O)N1CCOCC1,inactive: -10.1% [at 57.5 µM]
13,CCn1nc(CC(C)C)cc1C(=O)N(C)Cc1cccc(-n2cccn2)c1,inactive: -7.67%
14,COCC(=O)NC1CCC12CCN(C(=O)c1ccc3ccccc3n1)CC2 (stereo not given),inactive: 45.7%
15,CNc1cccnc1OC1CCN(S(=O)(=O)c2ccc3c(c2)CCC3)C1 (stereo not given),inactive: 11.7%
16,CC(C)c1nnc(C2CN(C(=O)Cc3ccccc3Cl)CC23CCOCC3)o1 (stereo not given),inactive: -5.97%
17,CC(C)CC(=O)N1CCCCCC1c1nc(-c2ccncc2)no1 (stereo not given),inactive: 8.06%
18,CCN(CC)Cc1cccc(NS(=O)(=O)NCc2ccccc2)c1,inactive: 3.39%
19,COc1ccc(C(=O)N[C@@H]2CN(C(=O)Nc3cccc(C(F)(F)F)c3)CCC[C@H]2O)cc1,inactive: 4.38%
20,Cc1noc(-c2ccccc2Cl)c1C(=O)NCCCc1ccccc1,inactive: 5.18%
21,O=C1CCCCC(C(=O)N2CC=C(c3ccccc3)CC2)N1 (stereo not given),inactive: 3.49%
22,COC1CCN(CC2CCCCCN2C(=O)c2cc(F)ccc2F)CC1 (stereo not given),inactive: 22.4%

# Some of the entries above in a different format.
row | Structure (SMILES) | activity % (negative = inhibition)
20 | COc1ccccc1OCCN1C(=O)C2(CCOCC2)CC1c1nnnn1C(C)(C)C (stereo not given) | inactive: 4.52%
21 | Cc1cnc(CCN)n1Cc1ccccc1 | inactive: -1.12%
22 | CC(C)n1nc(OC(C)(C)C(=O)Nc2ccccn2)c2cc(CN3CCOCC3)ccc21 | inactive: 2.09% [at 57.5 µM]
1 | CC(=O)N[C@@H]1CN(C(=O)CCc2c[nH]c3ccccc23)C[C@H]1CO | inactive: 0.334%
2 | Cn1ncc2c(NCCc3nnc(N)s3)nc(-c3ccncc3)nc21 | inactive: 0.0205%
3 | CN1CCNC(=O)C1CC(=O)O (stereo not given) | inactive: 12.9%
4 | COc1ccc(CN2CCN(C3CCN(c4ccccc4)CC3)CC2CCO)cc1C (stereo not given) | inactive: -1.42%
5 | Cc1onc(-c2cnn(C)c2NCc2ccc(C#N)cc2)c1C(=O)N1CCCC1 | inactive: 0.853% [at 57.5 µM]
6 | O=S(=O)(c1ccccc1F)N1CCC(CCc2nc(C3CCOCC3)no2)CC1 | inactive: 28.6%
7 | CCCS(=O)(=O)N1CCCC(c2[nH]ccc2C(N)=O)C1 (stereo not given) | inactive: 0.265%
8 | COc1ccc(Cl)cc1C(=O)N1CCC2(CC1)CN(C)CCN2C | inactive: -1.47%
9 | O=C(c1nc(-c2cccnc2)c2ccccn12)N1CCOCC1 | inactive: 13.2% [at 57.5 µM]
10 | COc1ccc(CN2CC(c3nc(Cc4cccnc4)no3)C2)c(OC)c1 | inactive: 17.3%
11 | CCc1nc(-c2c3n(c(=O)n(CC(=O)Nc4cc(C)on4)c2=O)CCCC3)no1 | inactive: 3.96%
12 | O=C(NC[C@H]1OC[C@@H](NC2CCC2)[C@@H]1O)N1CCOCC1 | inactive: -10.1% [at 57.5 µM]
13 | CCn1nc(CC(C)C)cc1C(=O)N(C)Cc1cccc(-n2cccn2)c1 | inactive: -7.67%
14 | COCC(=O)NC1CCC12CCN(C(=O)c1ccc3ccccc3n1)CC2 (stereo not given) | inactive: 45.7%
15 | CNc1cccnc1OC1CCN(S(=O)(=O)c2ccc3c(c2)CCC3)C1 (stereo not given) | inactive: 11.7%
16 | CC(C)c1nnc(C2CN(C(=O)Cc3ccccc3Cl)CC23CCOCC3)o1 (stereo not given) | inactive: -5.97%
17 | CC(C)CC(=O)N1CCCCCC1c1nc(-c2ccncc2)no1 (stereo not given) | inactive: 8.06%
18 | CCN(CC)Cc1cccc(NS(=O)(=O)NCc2ccccc2)c1 | inactive: 3.39%
19 | COc1ccc(C(=O)N[C@@H]2CN(C(=O)Nc3cccc(C(F)(F)F)c3)CCC[C@H]2O)cc1 | inactive: 4.38%

# The list goes on.

row,Structure (SMILES),activity % (negative = inhibition)
1,COC(=O)c1cccc(CNCC2=CC(C)(C)COc3ccc(OC)cc32)c1,inactive: 5.31%
2,O=C(c1ccccc1)N1CCCC(C(=O)N2CCC(c3nc4ccncc4[nH]3)C2)C1 (stereo not given),inactive: 0.416%
3,Cc1ccc(NC(=O)N[C@H]2C[C@@](O)(C(=O)N[C@H]3CCCNC3=O)C[C@@H](O)[C@@H]2O)cc1,inactive: 0.424% [at 57.5 µM]
4,CN1CCN([C@H]2CCN(Cc3ccc4occc4c3)C[C@H]2CCC(=O)O)CC1,inactive: -2.63%
5,COc1cccc(C(=O)N(CC(C)C)CC2CN(C(=O)Nc3ccccc3)CCO2)c1 (stereo not given),inactive: 2.82%
6,O=C(CCC1CCCC1)Nc1ccc(-c2nnc3n2CCCC3)cc1,inactive: 2.38%
7,CN(C)[C@@H]1CN(C(=O)c2ccc(C#N)cc2)C[C@H]1CO,inactive: -7.06%
8,Cc1n[nH]c(C)c1CCC(=O)Nc1cccn2nc(C3CCC3)nc12,inactive: 3.99%
9,CC(C)c1noc([C@@H]2C[C@H](NS(=O)(=O)Cc3ccccc3)CN2C)n1,inactive: -5.69% [at 57.5 µM]
10,O=C(CN1C(=O)COc2ccc(C(=O)COc3ccccc3F)cc21)Nc1ccc(F)cc1,inactive: -1.38%
11,Cc1ccc(C(=O)N2CCc3nc(-c4cn[nH]c4)[nH]c3C2)cc1N1CCNC1=O,inactive: 7.05%
12,CCOC(=O)C[C@@H]1C[C@@H](C(C)C)[C@H](CNS(=O)(=O)c2ccccc2)C=C1C,inactive: -0.0066% [at 57.5 µM]
13,Cc1noc(C)c1-c1cc2c(c(-c3ccccc3Oc3ccccc3)c1)C(=O)N(C)C2,inactive: -2.01% [at 57.5 µM]
14,O=C1NCC2(CCCN(C(=O)c3cn[nH]c3-n3cnnn3)C2)O1 (stereo not given),inactive: -0.435%
15,O=C1NCCOCCCN(C(=O)CC2CCCC2)[C@H]2CCC[C@@H]12,inactive: -2.15%
16,O=C(c1n[nH]c2ccccc12)N1CCCC1c1nc(CCOCC2CCOCC2)no1 (stereo not given),inactive: 0.0142%
17,CC(C)CC(=O)NC[C@@H]1C[C@H](F)CN1C(=O)CCCc1cccs1,inactive: 35.9%
18,NC(=O)NCC(=O)N1CC[C@@H]2[C@@H](CCC(=O)N2CCc2ccccn2)C1,inactive: -1.6%
19,Cc1cccc(C)c1-c1nc(C(=O)N2CCN(c3ncccn3)CC2)n2ccccc12,inactive: 12.3%
